Experimental data: patent US11000514B2, “Antifungal compounds” (Duke University, priority 2014, dated 2021)
Some of these results come from one statement about several compounds together.

What follows are compounds tested on IL2 (assay: IL2 IC50 determination). Conditions: range in words.
Assay type: cell-based

SMILES	IL2 IC50
CO[C@H]1C[C@@H](C)C/C(C)=C/[C@@H](CC=O)C(=O)C[C@H](O)[C@@H](C)[C@@H](/C(C)=C/[C@@H]2CC[C@@H](O)[C@H](OC)C2)OC(=O)[C@@H]2CCCCN2C(=O)C(=O)[C@]2(O)O[C@H]1[C@@H](OC)C[C@H]2C [Compound 172]	nanomolar
CO[C@H]1C[C@@H](C)C/C(C)=C/[C@@H](CC2CO2)C(=O)C[C@H](O)[C@@H](C)[C@@H](/C(C)=C/[C@@H]2CC[C@@H](O)[C@H](OC)C2)OC(=O)[C@@H]2CCCCN2C(=O)C(=O)[C@]2(O)O[C@H]1[C@@H](OC)C[C@H]2C (some centres unmarked) [Compound 173]	nanomolar
C=CC[C@@H]1/C=C(\C)C[C@H](C)C[C@H](OC)[C@H]2O[C@@](O)(C(=O)C(=O)N3CCCC[C@H]3C(=O)O[C@H](/C(C)=C/[C@@H]3CC[C@@H](O)[C@H](OC)C3)[C@H](C)[C@@H](O)C/C1=N/OCC(=O)O)[C@H](C)C[C@@H]2OC [Compound 174]	nanomolar
CO[C@H]1C[C@@H](C)C/C(C)=C/[C@@H](C/C=C/CCC(=O)N2CCNCC2)C(=O)C[C@H](O)[C@@H](C)[C@@H](/C(C)=C/[C@@H]2CC[C@@H](O)[C@H](OC)C2)OC(=O)[C@@H]2CCCCN2C(=O)C(=O)[C@]2(O)O[C@H]1[C@@H](OC)C[C@H]2C [Compound 177]	micromolar
CO[C@H]1C[C@@H](C)C/C(C)=C/[C@@H](CCCC(=O)NCCO)C(=O)C[C@H](O)[C@@H](C)[C@@H](/C(C)=C/[C@@H]2CC[C@@H](O)[C@H](OC)C2)OC(=O)[C@@H]2CCCCN2C(=O)C(=O)[C@]2(O)O[C@H]1[C@@H](OC)C[C@H]2C [Compound 184]	nanomolar
